Laboratory results reported in the supplement of paper PMC10849652.
The list shows a part of the results.

The chains behind the UniProt entries cited, without tags or fusion partners. Where a name states a change or a piece, a line headed by the entry shows the natural chain unless it says otherwise.
UniProt Q05048: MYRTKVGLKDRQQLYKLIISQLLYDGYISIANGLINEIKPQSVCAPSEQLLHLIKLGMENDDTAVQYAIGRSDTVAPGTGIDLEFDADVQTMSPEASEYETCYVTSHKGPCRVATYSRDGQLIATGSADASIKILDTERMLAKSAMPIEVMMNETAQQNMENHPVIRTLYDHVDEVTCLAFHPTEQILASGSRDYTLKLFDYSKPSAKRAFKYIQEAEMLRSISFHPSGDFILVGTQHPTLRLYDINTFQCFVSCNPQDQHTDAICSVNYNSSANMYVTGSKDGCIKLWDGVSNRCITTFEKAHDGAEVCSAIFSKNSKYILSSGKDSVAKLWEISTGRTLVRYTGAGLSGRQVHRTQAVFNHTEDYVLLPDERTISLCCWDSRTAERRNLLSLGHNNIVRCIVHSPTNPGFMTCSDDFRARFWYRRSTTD
UniProt Q9H467: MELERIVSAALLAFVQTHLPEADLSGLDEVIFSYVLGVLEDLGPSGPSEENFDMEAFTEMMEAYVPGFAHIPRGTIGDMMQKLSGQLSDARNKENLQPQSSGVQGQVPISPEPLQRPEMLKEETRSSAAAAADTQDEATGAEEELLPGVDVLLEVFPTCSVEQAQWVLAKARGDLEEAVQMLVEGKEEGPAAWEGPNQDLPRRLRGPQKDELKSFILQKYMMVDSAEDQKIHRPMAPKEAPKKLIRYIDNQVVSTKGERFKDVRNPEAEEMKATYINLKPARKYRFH
UniProt Q66K64, whole entry, looked up: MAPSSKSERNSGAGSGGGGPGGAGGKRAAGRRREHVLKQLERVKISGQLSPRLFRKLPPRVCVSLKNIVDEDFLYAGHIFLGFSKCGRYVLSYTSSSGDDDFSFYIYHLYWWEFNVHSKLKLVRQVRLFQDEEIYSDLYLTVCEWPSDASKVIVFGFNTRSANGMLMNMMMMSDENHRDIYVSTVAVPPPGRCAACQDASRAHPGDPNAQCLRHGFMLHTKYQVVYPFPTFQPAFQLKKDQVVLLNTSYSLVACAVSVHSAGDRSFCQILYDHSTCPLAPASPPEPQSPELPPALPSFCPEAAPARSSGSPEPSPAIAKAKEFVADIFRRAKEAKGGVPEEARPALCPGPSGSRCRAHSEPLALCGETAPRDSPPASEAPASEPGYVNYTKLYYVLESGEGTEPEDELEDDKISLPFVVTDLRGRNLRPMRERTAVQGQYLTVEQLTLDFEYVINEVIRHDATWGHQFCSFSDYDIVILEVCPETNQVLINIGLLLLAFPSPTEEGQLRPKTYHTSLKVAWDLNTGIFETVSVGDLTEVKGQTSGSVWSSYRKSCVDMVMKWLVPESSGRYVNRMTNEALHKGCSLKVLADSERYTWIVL
UniProt Q12996: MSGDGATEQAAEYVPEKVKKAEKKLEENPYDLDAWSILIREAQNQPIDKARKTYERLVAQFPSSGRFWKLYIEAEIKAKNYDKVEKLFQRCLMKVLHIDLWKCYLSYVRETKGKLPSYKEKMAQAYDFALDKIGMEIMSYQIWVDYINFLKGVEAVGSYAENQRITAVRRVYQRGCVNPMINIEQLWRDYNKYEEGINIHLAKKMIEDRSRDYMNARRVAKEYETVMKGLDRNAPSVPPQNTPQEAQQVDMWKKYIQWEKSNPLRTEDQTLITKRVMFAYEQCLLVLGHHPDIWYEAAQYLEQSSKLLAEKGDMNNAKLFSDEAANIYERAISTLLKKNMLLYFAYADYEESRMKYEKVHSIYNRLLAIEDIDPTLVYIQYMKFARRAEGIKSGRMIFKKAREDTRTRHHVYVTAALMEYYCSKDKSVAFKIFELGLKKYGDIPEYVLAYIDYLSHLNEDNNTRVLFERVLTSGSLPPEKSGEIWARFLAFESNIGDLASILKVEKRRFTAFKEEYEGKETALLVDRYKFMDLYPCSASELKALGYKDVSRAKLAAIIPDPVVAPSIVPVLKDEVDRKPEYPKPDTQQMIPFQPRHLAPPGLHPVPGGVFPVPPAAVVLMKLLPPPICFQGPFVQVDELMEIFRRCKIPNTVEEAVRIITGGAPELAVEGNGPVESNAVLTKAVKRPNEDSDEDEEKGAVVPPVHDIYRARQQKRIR
UniProt Q7L576: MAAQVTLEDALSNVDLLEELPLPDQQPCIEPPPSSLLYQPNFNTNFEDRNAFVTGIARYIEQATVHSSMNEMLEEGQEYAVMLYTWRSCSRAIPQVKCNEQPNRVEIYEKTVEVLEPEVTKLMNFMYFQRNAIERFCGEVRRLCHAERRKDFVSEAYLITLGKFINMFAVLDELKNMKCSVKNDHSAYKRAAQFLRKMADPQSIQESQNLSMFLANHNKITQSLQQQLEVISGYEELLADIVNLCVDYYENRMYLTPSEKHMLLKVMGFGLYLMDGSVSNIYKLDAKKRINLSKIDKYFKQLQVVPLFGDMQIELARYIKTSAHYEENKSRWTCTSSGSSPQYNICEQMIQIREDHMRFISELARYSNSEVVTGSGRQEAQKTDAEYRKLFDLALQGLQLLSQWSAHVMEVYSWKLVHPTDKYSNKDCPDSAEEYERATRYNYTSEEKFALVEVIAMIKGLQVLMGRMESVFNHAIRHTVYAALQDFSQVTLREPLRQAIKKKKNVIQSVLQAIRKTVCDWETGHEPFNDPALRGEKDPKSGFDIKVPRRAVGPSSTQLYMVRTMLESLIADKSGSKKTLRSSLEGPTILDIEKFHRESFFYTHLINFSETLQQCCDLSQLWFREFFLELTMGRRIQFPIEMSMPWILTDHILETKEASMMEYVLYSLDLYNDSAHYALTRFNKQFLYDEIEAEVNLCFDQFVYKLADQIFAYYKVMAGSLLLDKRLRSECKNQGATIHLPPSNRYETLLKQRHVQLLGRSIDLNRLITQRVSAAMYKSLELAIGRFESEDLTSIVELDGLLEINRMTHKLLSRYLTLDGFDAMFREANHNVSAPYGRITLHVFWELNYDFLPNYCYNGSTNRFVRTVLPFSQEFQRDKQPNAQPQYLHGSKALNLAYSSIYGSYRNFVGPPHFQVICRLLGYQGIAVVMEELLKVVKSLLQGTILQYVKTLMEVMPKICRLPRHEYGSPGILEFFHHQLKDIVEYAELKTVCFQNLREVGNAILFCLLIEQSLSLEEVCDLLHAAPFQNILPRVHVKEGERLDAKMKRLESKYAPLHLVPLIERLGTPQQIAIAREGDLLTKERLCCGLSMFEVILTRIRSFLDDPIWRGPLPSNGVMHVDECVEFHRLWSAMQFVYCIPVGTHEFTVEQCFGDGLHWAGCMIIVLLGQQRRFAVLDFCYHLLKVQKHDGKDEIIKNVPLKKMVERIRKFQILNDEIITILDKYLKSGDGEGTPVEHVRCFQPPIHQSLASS
UniProt O75935, whole entry, looked up: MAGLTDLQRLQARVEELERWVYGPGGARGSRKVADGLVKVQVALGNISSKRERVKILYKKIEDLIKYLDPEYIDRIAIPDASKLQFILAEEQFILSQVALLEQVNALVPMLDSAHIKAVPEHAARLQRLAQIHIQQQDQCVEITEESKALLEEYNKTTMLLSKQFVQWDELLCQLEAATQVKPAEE
UniProt Q9UK59: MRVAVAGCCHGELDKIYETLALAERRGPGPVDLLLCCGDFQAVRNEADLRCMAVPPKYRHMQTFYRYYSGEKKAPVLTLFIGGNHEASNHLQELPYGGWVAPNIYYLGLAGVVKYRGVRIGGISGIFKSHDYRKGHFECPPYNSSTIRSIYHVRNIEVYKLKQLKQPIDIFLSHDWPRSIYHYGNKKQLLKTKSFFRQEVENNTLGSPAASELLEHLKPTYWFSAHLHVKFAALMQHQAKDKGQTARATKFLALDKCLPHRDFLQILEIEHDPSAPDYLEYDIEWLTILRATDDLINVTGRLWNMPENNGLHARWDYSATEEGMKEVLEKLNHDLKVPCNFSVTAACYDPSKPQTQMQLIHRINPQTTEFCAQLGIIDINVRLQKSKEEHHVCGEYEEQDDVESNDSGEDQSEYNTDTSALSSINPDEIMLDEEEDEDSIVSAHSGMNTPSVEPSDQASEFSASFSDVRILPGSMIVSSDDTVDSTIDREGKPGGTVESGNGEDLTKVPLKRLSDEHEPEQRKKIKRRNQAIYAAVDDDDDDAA
UniProt P08574: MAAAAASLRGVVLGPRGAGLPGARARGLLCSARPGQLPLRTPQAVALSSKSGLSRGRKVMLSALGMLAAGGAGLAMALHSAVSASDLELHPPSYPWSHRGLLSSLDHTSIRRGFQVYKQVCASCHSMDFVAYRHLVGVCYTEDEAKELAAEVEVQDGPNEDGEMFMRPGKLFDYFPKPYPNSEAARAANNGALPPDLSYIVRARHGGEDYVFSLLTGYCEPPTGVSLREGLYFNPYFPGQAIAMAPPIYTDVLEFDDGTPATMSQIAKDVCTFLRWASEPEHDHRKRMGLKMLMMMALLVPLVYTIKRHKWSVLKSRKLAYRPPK
UniProt Q2VPK5: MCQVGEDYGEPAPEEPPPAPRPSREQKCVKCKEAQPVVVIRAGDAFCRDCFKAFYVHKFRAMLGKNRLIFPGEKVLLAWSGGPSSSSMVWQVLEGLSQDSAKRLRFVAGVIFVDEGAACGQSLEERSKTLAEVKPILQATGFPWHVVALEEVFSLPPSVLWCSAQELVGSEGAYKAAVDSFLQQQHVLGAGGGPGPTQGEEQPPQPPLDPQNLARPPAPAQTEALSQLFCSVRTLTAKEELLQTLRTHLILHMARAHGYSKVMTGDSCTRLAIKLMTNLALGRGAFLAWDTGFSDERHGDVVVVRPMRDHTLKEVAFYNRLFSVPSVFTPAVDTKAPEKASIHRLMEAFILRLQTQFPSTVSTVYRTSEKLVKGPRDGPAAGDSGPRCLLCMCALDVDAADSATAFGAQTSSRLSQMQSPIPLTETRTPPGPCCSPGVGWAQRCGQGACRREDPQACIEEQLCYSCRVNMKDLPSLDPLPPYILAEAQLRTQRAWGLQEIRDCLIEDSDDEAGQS
UniProt Q01459: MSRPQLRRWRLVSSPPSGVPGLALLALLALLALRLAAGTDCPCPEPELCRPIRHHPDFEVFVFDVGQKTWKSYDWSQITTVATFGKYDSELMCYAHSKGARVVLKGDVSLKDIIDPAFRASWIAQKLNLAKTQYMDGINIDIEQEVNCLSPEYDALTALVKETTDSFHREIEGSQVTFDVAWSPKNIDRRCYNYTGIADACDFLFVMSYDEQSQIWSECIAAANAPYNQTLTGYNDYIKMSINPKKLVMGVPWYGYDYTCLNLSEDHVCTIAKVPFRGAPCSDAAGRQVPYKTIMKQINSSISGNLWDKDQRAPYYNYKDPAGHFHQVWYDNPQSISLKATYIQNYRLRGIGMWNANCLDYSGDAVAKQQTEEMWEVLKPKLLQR
UniProt Q5QP82: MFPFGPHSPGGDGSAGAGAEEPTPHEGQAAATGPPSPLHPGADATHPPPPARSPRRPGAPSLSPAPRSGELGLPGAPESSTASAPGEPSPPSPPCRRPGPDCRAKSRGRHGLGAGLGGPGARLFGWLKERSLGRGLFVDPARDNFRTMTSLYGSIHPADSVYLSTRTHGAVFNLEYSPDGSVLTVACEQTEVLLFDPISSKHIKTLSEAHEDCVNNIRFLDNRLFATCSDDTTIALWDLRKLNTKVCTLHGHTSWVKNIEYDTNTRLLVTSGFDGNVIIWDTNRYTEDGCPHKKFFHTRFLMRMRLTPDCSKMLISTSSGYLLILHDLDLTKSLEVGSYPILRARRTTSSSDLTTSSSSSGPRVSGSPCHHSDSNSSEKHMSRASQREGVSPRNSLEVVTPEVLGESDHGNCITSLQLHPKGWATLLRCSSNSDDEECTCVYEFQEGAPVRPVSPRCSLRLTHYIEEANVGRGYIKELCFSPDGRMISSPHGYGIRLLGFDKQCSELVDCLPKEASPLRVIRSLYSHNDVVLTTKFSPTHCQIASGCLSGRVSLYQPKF
UniProt Q14247: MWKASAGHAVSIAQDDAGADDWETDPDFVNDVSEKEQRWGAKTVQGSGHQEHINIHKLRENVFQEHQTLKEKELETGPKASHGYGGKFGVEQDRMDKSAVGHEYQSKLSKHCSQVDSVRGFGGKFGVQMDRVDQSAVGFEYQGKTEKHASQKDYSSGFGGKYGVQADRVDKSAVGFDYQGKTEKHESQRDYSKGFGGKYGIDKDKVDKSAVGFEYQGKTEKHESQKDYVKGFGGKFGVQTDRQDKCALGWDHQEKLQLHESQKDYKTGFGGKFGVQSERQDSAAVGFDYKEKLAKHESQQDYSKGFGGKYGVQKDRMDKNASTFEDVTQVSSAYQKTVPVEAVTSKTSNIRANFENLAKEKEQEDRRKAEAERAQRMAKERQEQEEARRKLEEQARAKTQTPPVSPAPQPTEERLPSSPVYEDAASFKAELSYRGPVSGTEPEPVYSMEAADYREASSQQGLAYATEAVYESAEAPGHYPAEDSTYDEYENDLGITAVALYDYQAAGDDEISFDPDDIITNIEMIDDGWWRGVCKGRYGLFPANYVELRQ

What follows are targets tested with CC[C@@H]1C(=O)N(C)c2cnc(Nc3ccc(C(=O)NC4CCN(C)CC4)cc3OC)nc2N1C1CCCC1 (assay: log2 fold change, soluble protein after heating vs DMSO (PISA); higher = thermal stabilisation; K562 cells, 10 uM, 30 min; active = over 0.2 and 3.5 SD of the protein, either way, in both replicates (recomputed)).
Procedure, shortened: (§1)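 Quantification of soluble protein used TMTpro 16plex LC-MS/MS, with channel sums equalised. Samples were the supernatant after 21,000xg for 90 min of pooled aliquots from K562 cells (2×10^6 cells/mL) treated with 10 μM compound for 30 min, heated for 3 min over 48°C-58°C, and extracted in PBS with 0.5% NP-40 at 4°C. Values, from duplicates, describe thermal stability against control samples on a log2 fold-change scale.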

Target	log2 fold change
CSTF1 (UniProt Q05048)	inactive: 0.079
CYB5R1 (UniProt Q9UHQ9)	inactive: 0.073
CTBP1 (UniProt Q13363)	inactive: 0.086
CYFIP2 (UniProt Q96F07)	inactive: 0.038
CUEDC2 (UniProt Q9H467)	inactive: -0.044
CXorf56 (UniProt Q9H5V9)	inactive: -0.018
CSPP1 (UniProt Q1MSJ5)	inactive: -0.083
DCAF15 (UniProt Q66K64)	inactive: 0.01
CSTF3 (UniProt Q12996)	inactive: 0.061
CYFIP1 (UniProt Q7L576)	inactive: -0.011
DCTN3 (UniProt O75935)	inactive: -0.022
DBR1 (UniProt Q9UK59)	inactive: 0.037
CYC1 (UniProt P08574)	inactive: -0.008
CTU2 (UniProt Q2VPK5)	inactive: -0.006
CTBS (UniProt Q01459)	active: -0.494
DCAF10 (UniProt Q5QP82)	inactive: -0.003
CTTN (UniProt Q14247)	inactive: 0.016

The targets below were run with CC[C@@H]1C(=O)N(C)c2cnc(Nc3ccc(C(=O)N[C@H]4CC[C@H](N5CCN(CC6CC6)CC5)CC4)cc3OC)nc2N1C(C)C [volasertib] in the same assay as above.
Procedure, shortened: as §1

Target	log2 fold change
CT47A1 (UniProt Q5JQC4)	inactive: -0.057
CWC27 (UniProt Q6UX04)	active: -0.421
CYB5B, A0A499FJ32	inactive: -0.097
CUX1 isoform 2 (UniProt Q13948)	inactive: -0.188
CYB5R4 (UniProt Q7L1T6)	inactive: -0.047
CYHR1 (UniProt E9PJD7)	inactive: -0.022
DCAF7 (UniProt P61962)	inactive: 0.031
CT45A10 (UniProt P0DMU9)	inactive: 0.237
CTPS1 (UniProt P17812)	inactive: 0.002
CTH (UniProt P32929)	inactive: 0.026
CTNNA2 (UniProt P26232)	inactive: -0.034
CUL1 (UniProt Q13616)	inactive: 0.047
CTSL (UniProt P07711)	inactive: -0.247
CTNNB1 (UniProt P35222)	inactive: -0.162
CYB5R3 isoform 3 (UniProt P00387)	inactive: -0.022
CUTA isoform 2 (UniProt O60888)	inactive: -0.057
CTIF isoform 2 (UniProt O43310)	inactive: -0.019
CUL3 (UniProt Q13618)	inactive: -0.005
CUL2 isoform 2 (UniProt Q13617)	inactive: -0.055
CST3 (UniProt P01034)	inactive: 0.187

Target	log2 fold change
DAG1 (UniProt Q14118)	inactive: 0.048
D2HGDH (UniProt Q8N465)	inactive: -0.014
CTSV (UniProt O60911)	active: -0.993
CSTF1 (UniProt Q05048)	inactive: 0.051
CYB5R1 (UniProt Q9UHQ9)	inactive: 0.042
CTBP1 (UniProt Q13363)	inactive: 0.056
CYFIP2 (UniProt Q96F07)	inactive: -0.177
CUEDC2 (UniProt Q9H467)	inactive: -0.133
CXorf56 (UniProt Q9H5V9)	inactive: -0.088
CSPP1 (UniProt Q1MSJ5)	inactive: -0.151
DCAF15 (UniProt Q66K64)	inactive: -0.03
CSTF3 (UniProt Q12996)	inactive: 0.091
CYFIP1 (UniProt Q7L576)	active: -0.233
DCTN3 (UniProt O75935)	inactive: -0.119
DBR1 (UniProt Q9UK59)	inactive: 0
CYC1 (UniProt P08574)	inactive: -0.02
CTU2 (UniProt Q2VPK5)	inactive: -0.007
CTBS (UniProt Q01459)	active: -0.376
DCAF10 (UniProt Q5QP82)	inactive: 0.029
CTTN (UniProt Q14247)	inactive: -0.025

What follows are targets tested with CC[C@H](C)N1C=C(C2=C(C=C(C=C21)C3=CN=C(C=C3)N4CCNCC4)C(=O)NCC5=C(C=C(NC5=O)C)C)C in the same assay as above.
Procedure, shortened: as §1

Target	log2 fold change
CT47A1 (UniProt Q5JQC4)	inactive: 0.028
CWC27 (UniProt Q6UX04)	inactive: 0.086
CYB5B, A0A499FJ32	inactive: -0.047
CUX1 isoform 2 (UniProt Q13948)	inactive: 0
CYB5R4 (UniProt Q7L1T6)	inactive: 0.01
CYHR1 (UniProt E9PJD7)	inactive: -0.005
DCAF7 (UniProt P61962)	inactive: 0.054
CT45A10 (UniProt P0DMU9)	inactive: -0.032
CTPS1 (UniProt P17812)	inactive: -0.021
CTH (UniProt P32929)	inactive: -0.03
CTNNA2 (UniProt P26232)	inactive: 0.05
CUL1 (UniProt Q13616)	inactive: -0.032
CTSL (UniProt P07711)	inactive: -0.045
CTNNB1 (UniProt P35222)	inactive: -0.116
CYB5R3 isoform 3 (UniProt P00387)	inactive: -0.028
CUTA isoform 2 (UniProt O60888)	inactive: -0.033
CTIF isoform 2 (UniProt O43310)	inactive: 0.062
CUL3 (UniProt Q13618)	inactive: 0.02
CUL2 isoform 2 (UniProt Q13617)	inactive: 0.043
CST3 (UniProt P01034)	inactive: -0.025

Target	log2 fold change
DAG1 (UniProt Q14118)	inactive: -0.008
D2HGDH (UniProt Q8N465)	inactive: 0.061
CTSV (UniProt O60911)	inactive: -0.054
CSTF1 (UniProt Q05048)	inactive: -0.034
CYB5R1 (UniProt Q9UHQ9)	inactive: -0.015
CTBP1 (UniProt Q13363)	inactive: -0.03
CYFIP2 (UniProt Q96F07)	inactive: 0.046
CUEDC2 (UniProt Q9H467)	inactive: 0.033
CXorf56 (UniProt Q9H5V9)	inactive: 0.06
CSPP1 (UniProt Q1MSJ5)	inactive: -0.039
DCAF15 (UniProt Q66K64)	inactive: 0.204
CSTF3 (UniProt Q12996)	inactive: -0.028
CYFIP1 (UniProt Q7L576)	inactive: 0.046
DCTN3 (UniProt O75935)	inactive: 0.081
DBR1 (UniProt Q9UK59)	inactive: 0.008
CYC1 (UniProt P08574)	inactive: 0.014
CTU2 (UniProt Q2VPK5)	inactive: 0.043
CTBS (UniProt Q01459)	inactive: -0.074
DCAF10 (UniProt Q5QP82)	inactive: -0.038
CTTN (UniProt Q14247)	inactive: -0.045
